Common to all, as to assay: peptide or protein array; peptides synthesized on a cellulose membrane, blotted with GST-PTBi; anti-GST Far-Western to detect the bound protein; both purified
For test [1], the target named is T1, ALK peptide G1473…1483 on a cellulose membrane.
T1 sequence (peptide): GGHVNMAFSQS

The target in test [2] is T2, ALK peptide M1099…1109 on a cellulose membrane.
T2 sequence (peptide): MTDYNPNYCFA

Test [3] has as its target T3, ALK peptide F1577…1587 on a cellulose membrane.
T3 sequence (peptide): FPCGNVNYGYQ

The target in test [4] is T4, ALK peptide P1499…1509 on a cellulose membrane.
T4 sequence (peptide): PTSLWNPTYGS

No constants are given. Whether binding was seen depends on the method and setting. For some of these results: A result given as binding can be weak or reduced; the word gives no strength.

On to “GST-fused NUMB PTB domain with the exon 3 insert (11 aa) (domain or fragment)”, for which the binding entry in test [1] is “binds”; in test [2] it was “no binding”; in test [3], “binds”; in test [4], “no binding”.

The values are drawn from paper PMC6927325.
